Measurements reported in publication doi:10.1101/2024.01.08.574713.
Results are given in words; binding and its absence hold for the method and conditions named. Binding seen in cells or lysates may run through a third protein. Some entries that bind do so weakly or less than the wild type. Blank lines part the entries; values can stand above or below the molecule they belong to.

The chains behind the UniProt entries cited, without tags or fusion partners.
UniProt Q61510: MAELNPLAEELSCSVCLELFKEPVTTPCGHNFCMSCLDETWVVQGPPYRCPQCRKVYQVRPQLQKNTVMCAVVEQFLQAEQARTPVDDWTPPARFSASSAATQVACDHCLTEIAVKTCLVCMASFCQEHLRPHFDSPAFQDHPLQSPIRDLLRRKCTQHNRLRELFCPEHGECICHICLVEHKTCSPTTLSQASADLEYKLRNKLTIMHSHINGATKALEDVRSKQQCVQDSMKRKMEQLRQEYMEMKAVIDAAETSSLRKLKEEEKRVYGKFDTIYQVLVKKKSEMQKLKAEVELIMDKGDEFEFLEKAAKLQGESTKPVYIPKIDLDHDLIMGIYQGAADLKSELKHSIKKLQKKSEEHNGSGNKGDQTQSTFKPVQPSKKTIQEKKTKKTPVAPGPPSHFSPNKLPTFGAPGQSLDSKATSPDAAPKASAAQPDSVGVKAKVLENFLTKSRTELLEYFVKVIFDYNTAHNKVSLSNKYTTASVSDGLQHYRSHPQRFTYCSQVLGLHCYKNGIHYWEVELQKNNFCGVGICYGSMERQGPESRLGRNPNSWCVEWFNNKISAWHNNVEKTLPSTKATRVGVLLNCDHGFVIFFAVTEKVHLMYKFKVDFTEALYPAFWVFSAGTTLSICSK

Tests used:
[1] = molecular target: T1, RIG-I (mouse (endogenous in AML-12)) (UniProt Q6Q899); test: co-IP
T1 sequence: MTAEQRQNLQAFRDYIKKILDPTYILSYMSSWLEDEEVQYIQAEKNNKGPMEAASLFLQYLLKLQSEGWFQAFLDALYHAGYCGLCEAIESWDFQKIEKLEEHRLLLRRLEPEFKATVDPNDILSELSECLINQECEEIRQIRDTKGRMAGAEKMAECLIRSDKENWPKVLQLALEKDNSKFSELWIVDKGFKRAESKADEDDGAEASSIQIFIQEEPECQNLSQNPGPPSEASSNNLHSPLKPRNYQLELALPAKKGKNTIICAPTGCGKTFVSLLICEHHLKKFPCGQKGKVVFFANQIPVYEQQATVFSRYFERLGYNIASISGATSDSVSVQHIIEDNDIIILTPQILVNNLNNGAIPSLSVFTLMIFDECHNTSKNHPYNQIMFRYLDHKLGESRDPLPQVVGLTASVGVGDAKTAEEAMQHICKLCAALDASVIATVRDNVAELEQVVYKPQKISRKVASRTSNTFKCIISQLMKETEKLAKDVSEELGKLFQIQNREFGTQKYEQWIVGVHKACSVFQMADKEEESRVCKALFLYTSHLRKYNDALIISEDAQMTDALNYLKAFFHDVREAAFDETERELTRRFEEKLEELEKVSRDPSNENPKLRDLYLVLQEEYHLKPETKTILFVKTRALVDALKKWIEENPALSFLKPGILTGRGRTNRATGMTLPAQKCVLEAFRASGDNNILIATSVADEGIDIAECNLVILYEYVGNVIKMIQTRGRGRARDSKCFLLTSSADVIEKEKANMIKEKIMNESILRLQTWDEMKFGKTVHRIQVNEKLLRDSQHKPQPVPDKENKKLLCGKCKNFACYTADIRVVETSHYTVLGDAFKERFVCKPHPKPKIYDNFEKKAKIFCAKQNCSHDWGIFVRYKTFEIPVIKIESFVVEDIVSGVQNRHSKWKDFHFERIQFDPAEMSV

[2] = molecular target: T2, PACT, the protein activator of PKR (mouse (endogenous in AML-12)) (UniProt Q9WTX2); test: proximity ligation
T2 sequence: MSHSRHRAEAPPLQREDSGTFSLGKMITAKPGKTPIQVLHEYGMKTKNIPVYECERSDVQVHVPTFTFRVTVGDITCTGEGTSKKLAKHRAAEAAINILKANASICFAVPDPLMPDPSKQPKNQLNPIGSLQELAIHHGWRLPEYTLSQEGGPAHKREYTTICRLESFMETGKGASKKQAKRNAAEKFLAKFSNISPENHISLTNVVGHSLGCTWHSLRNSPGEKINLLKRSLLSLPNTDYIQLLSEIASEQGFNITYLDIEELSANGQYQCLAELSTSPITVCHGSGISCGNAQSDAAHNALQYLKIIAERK

[3] = molecular target: T2, PACT, the protein activator of PKR (mouse (endogenous in AML-12)); test: co-IP
[4] = molecular target: T2, PACT, the protein activator of PKR (mouse (endogenous in AML-12)); test: co-IP; remark: listed apart in the source
[5] = molecular target: T2, PACT, the protein activator of PKR (mouse (endogenous in AML-12)); test: proximity ligation; remark: listed apart in the source

binding [1]: binds
Molecule: TRIM25 (from UniProt Q61510 1-634) (enzyme)

binding [2]: no binding (condition: untreated cells)
binding [3]: binds
binding [4]: binds weakly
binding [5]: binds
B1: RIG-I (protein, UniProt Q6Q899 1-926)
chain: T1 sequence
